{"sequences": {"note": "Amino acid sequences for entries named in this document (tags omitted). A change or cut given only in a name is not applied to a line headed by its entry.", "UniProt P07636": "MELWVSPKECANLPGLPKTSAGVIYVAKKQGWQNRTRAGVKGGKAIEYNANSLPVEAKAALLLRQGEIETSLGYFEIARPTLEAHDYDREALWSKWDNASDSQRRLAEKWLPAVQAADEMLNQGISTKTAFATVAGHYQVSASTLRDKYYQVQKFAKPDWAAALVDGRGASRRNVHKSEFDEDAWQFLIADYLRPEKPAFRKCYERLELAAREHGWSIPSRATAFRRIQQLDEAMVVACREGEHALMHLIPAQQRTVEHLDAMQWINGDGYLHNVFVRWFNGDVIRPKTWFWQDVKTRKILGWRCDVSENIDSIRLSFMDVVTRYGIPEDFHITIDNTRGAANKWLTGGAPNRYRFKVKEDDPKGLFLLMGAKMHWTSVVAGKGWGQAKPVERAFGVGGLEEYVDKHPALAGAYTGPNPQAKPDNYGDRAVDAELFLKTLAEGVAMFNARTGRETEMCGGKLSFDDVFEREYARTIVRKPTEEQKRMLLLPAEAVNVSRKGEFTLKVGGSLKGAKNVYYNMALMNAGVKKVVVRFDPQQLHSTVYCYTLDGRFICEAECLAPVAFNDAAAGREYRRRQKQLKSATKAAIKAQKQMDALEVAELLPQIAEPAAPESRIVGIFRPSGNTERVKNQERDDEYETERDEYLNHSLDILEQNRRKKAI"}, "source": "patent US20170240955", "biological_target": "MuA transposase (UniProt P07636)", "test": "activity assay", "details": "transposition of adapter into lambda DNA (SEQ 31); 25 mM Tris-HCl pH 8.0, 10 mM MgCl2, 110 mM NaCl, 30 C; Agilent chip trace; purified recombinant protein; protein details: Thermo", "data": [{"sequence": "GCGTTCTGTTTCGGATGTATGTTTTCATACATCCGAAACAGAACGCTTTTGTTTTCGCATTTATCGTGAAACGCTTTCGCGTTTTTCGTGCGCCGCTTCA / GATCTGAAGCGGCGCACGAAAAACGCGAAAGCGTTTCACGATAATGCGAAAAC [MuA adapter X]", "values": [{"measurement": "activity on this sequence", "value": "active"}]}]}
